# Test results from the supplement of paper PMC5407854, “Inhibitor of ppGalNAc-T3-mediated O-glycosylation blocks cancer cell invasiveness and lowers FGF23 levels” (eLife, 2017).
# Some of the results follow. Most entries show no effect beyond the scatter of the controls.
# Test system: ppGalNAc-T2 sensor
# Test: T2 sensor activation Q score (MG/GFP ratio z-score vs DMSO controls) (SD units); higher = more sensor activation (inhibition of ppGalNAc-T2 glycosylation)
# Conditions: HEK293 sensor cells; 10 µM; 6 h
# Method: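 Cells were treated with compound at 10 uM for 6 h, then MG/GFP ratio was read by flow cytometry (10,000 cells per well, duplicate wells). Q = (R - R_neg)/SD_neg relative to DMSO vehicle controls; the signal rises when the glycosyltransferase is inhibited.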
row,SMILES,T2 sensor activation Q score
1,Cc1ccccc1N1CCN(Cc2ccc3c(c2)OCO3)CC1,0.235
2,Cc1ccc(C)c(N2CCN(Cc3ccccc3)CC2)c1,-0.715
3,COc1cc(OC)c(CN2CCN(c3ccccc3)CC2)cc1Br,-0.495
4,NCCc1c[nH]c2ccc(F)cc12,-0.455
5,COc1cccc(CN2CCN(c3ccccc3Cl)CC2)c1,-0.46
6,O=[N+]([O-])c1ccc(N2CCN(Cc3ccccc3F)CC2)cc1,-0.36
7,Cc1ccc(CN2CCN(C)CC2)cc1,-0.505
8,COc1ccccc1N1CCN(Cc2ccccc2F)CC1,-0.255
9,Brc1ccc(CN2CCN(c3ccccc3)CC2)cc1,-1.03
10,Fc1ccc(CN2CCN(Cc3ccccc3)CC2)cc1F,0.985
11,COc1ccc(CN2CCN(c3ccccc3C)CC2)c(OC)c1,-0.42
12,O=[N+]([O-])c1ccccc1CN1CCN(c2ccc(Cl)cc2)CC1,-0.68
13,Fc1ccc(N2CCN(Cc3cccc(Br)c3)CC2)cc1,0.24
14,COc1ccc(OC)c(CN2CCN(c3ccccc3C)CC2)c1,-0.345
15,CN1CCN(Cc2ccccc2[N+](=O)[O-])CC1,0.67
16,COc1ccccc1N1CCN(Cc2cccc(Cl)c2)CC1,0.08
17,Brc1ccc(CN2CCN(Cc3ccc4c(c3)OCO4)CC2)cc1,-0.025
18,CN1CCN(Cc2ccco2)CC1,0.795
19,Cc1ccccc1N1CCN(Cc2ccc([N+](=O)[O-])cc2)CC1,-0.39
20,COc1ccccc1N1CCN(Cc2ccc(F)cc2)CC1,-0.37

# Copied from the list.
# `Cc1ccccc1N1CCN(Cc2ccc([N+](=O)[O-])cc2)CC1` – T2 sensor activation Q score: -0.39
# `COc1ccccc1N1CCN(Cc2cccc(Cl)c2)CC1` – T2 sensor activation Q score: 0.08

# (list continues)

row,SMILES,T2 sensor activation Q score
1,Cc1cccc(N2CCN(Cc3cccc(F)c3)CC2)c1C,-0.235
2,Cc1ccccc1N1CCN(Cc2cccc([N+](=O)[O-])c2)CC1,0.215
3,CCOc1cc(CN2CCN(CC)CC2)ccc1O,-0.11
4,COc1ccc(CN2CCN(C)CC2)c(OC)c1,-1.02
5,COc1ccccc1N1CCN(Cc2cccc([N+](=O)[O-])c2)CC1,-0.19
6,CCOc1ccccc1N1CCN(Cc2ccccc2F)CC1,0.02
7,COc1ccc(CCNC2C3CC4CC(C3)CC2C4)cc1OC (stereo not given),0.325
8,Oc1ccc(CN2CCN(c3ccccc3)CC2)cc1,-0.08
9,CCOc1ccccc1N1CCN(Cc2ccccc2C)CC1,0.195
10,COc1cc(C)c(CN2CCN(c3ccccc3)CC2)cc1C,-0.38
11,Cc1ccccc1CN1C[C@@H]2C[C@@H](C1)c1cccc(=O)n1C2,0.19
12,CCOc1ccccc1CN1CCN(c2ccccc2Cl)CC1,-1.11
13,CCN1CCN(Cc2c(F)cccc2F)CC1,-0.295
14,CCOc1ccccc1N1CCN(Cc2ccc(OC)cc2)CC1,0.41
15,Clc1ccccc1CN1CCN(Cc2ccc3c(c2)OCO3)CC1,0.04
16,CCCCOc1ccc(CN2CCN(CC)CC2)cc1,-0.315
17,Cc1ccc(CN2CCN(c3ccccc3)CC2)c(C)c1,-0.175
18,CN(CCc1ccccc1)Cc1c(F)cccc1F,-0.075
19,CCOc1ccc(CN2CCN(c3ccccc3OC)CC2)cc1,-0.765
20,CCOc1ccc(CN2CCN(c3ccc(F)cc3)CC2)cc1,0.24
